From the supplement of paper PMC12819154, “High-throughput peptide-centric local stability assay extends protein–ligand identification to membrane proteins, tissues and bacteria” (Nature Structural & Molecular Biology, 2025)
The other results are listed elsewhere or left out. Most values lie at the level of the controls, where differences are scatter.

Chains of the proteins cited; added tags and fusions are not shown. Lines headed by an entry give the natural chain unless they say otherwise; changes in a name come on top.
UniProt P77624: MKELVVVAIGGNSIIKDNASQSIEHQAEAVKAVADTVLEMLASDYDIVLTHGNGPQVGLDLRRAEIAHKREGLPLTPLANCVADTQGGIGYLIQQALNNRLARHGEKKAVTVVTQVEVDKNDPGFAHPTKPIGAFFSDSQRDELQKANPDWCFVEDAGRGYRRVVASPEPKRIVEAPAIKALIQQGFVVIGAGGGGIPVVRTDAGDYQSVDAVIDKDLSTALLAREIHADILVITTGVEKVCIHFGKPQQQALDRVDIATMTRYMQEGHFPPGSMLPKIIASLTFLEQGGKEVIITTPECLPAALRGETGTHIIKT
UniProt P76222: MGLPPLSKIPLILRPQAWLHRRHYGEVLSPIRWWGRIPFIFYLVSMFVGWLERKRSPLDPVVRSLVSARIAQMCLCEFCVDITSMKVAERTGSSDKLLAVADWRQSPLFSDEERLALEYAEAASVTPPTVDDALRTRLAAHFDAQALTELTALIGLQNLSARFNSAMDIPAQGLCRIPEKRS
UniProt P76245: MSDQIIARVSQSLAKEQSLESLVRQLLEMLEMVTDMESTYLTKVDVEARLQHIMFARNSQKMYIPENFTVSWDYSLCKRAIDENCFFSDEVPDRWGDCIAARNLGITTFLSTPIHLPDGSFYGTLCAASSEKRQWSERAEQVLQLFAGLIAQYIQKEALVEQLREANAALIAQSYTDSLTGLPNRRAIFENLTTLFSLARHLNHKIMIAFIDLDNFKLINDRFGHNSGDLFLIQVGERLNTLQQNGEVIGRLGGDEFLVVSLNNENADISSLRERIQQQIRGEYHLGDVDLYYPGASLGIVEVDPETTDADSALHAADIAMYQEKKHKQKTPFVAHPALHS
UniProt P76243: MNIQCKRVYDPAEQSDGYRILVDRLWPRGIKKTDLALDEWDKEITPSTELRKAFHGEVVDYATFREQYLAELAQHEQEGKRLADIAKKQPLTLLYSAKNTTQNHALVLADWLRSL
UniProt P76083: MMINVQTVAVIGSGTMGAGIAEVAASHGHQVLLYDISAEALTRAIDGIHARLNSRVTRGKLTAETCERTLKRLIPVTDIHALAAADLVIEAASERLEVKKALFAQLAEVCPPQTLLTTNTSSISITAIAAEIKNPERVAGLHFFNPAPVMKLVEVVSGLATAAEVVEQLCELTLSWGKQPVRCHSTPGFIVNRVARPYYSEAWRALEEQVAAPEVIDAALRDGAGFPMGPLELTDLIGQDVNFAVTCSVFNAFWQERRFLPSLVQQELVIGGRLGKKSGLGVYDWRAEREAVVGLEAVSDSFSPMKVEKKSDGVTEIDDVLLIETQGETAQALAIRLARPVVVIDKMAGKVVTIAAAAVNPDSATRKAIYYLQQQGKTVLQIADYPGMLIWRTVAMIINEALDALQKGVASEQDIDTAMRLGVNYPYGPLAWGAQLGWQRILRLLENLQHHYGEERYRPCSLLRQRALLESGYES

Each target was assayed with CC1(C)S[C@@H]2[C@H](NC(=O)[C@H](N)c3ccccc3)C(=O)N2[C@H]1C(=O)O [ampicillin] (assay: log2 fold change of tryptic peptide abundance, ligand vs vehicle (limited proteolysis) (log2 ratio); higher = more trypsin-susceptible (destabilized)). Details: ligand concentration: 10 uM; sample: E. coli crude lysate.

| Target | log2 fold change |
| --- | --- |
| UniProt P77624 (peptide sequence: RIVEAPAIK, peptide start residue: 172) | 0.268 |
| UniProt P76222 (peptide sequence: LLAVADWR, peptide start residue: 97) | -0.241 |
| UniProt P76245 (peptide sequence: EQSLESLVR, peptide start residue: 16) | -0.0806 |
| UniProt P76243 (peptide sequence: KAFHGEVVDYATFR, peptide start residue: 52) | 0.157 |
| UniProt P76083 (peptide sequence: SGLGVYDWR, peptide start residue: 278) | -0.312 |
